Source: article PMC7794433, “Peptide signaling without feedback in signal production operates as a true quorum sensing communication system in Bacillus subtilis” (Communications Biology, 2021)

Test: ComX concentration in spent medium of ComX-overexpressing E. coli ED367
Design: species or system Escherichia coli

ADPITRQWGD [ComX, isoprenylated (farnesylated) quorum sensing signal peptide of B. subtilis, HPLC purified from E. coli ED367]
ComX concentration per optical density in E. coli spent media (E. coli ED367 overexpression): 200 nM a.u.^‒1 | ComX concentration in E. coli relative to B. subtilis (per optical density): about 20 times
